The target in assay [1] is T1, TOR Signaling Pathway Regulator‐Like (TIPRL) (human (endogenous in A549)) (UniProt O75663).
T1 sequence: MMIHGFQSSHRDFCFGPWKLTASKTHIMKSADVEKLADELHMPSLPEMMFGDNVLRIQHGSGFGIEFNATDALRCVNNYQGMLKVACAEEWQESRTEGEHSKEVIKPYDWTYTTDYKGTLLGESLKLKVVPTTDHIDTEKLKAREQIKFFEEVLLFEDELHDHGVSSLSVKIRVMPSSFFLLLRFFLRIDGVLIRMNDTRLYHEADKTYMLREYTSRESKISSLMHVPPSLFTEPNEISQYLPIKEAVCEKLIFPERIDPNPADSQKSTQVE
The assay can be described thus: co-IP; endogenous proteins from A549 lysates (lysis buffer A: 20 mM HEPES pH 7.5, 150 mM NaCl, 1 mM EDTA, 2 mM EGTA, 1% Triton X-100, 10% glycerol); 1 µg antibody against TIPRL, CaMKK2 or PP2Ac, or normal IgG, protein G sepharose, overnight at 4 °C; for CaMKK2 with PP2Ac the cells were transfected with siTIPRL or control siRNA, or overexpressed TIPRL.

By UniProt entry, the sequences of proteins in these tests, tags left out.
UniProt Q96RR4: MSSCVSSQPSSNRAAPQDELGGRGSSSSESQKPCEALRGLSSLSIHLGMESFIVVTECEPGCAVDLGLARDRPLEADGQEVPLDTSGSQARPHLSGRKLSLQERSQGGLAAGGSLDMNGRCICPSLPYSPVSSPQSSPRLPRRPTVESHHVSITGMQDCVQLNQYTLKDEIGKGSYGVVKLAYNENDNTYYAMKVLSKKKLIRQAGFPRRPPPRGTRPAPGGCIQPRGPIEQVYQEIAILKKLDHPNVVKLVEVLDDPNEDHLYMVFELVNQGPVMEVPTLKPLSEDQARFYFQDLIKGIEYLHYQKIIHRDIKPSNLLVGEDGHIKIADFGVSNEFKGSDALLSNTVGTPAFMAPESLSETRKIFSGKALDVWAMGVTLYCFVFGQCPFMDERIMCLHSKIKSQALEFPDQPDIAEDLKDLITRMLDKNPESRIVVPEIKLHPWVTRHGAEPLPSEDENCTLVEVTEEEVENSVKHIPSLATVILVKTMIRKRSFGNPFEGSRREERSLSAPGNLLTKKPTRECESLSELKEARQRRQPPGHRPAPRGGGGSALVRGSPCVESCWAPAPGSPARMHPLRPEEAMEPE

The target in assay [2] is T2, recombinant TIPRL (GST pull‐down) (UniProt O75663).
T2 sequence: T1 sequence
The assay can be described thus: pull-down; in vitro GST pull-down of recombinant TIPRL and CaMKK2; which protein carried GST is not stated; both purified.

Results are given in words; binding and its absence hold for the method and conditions named. For some assays here: Binding seen in cells or lysates may run through a third protein. Some entries that bind do so weakly or less than the wild type. For some assays here: Sequences can lack the tags named with a protein.

With “calcium/calmodulin‐dependent protein kinase kinase 2 (CaMKK2) (from UniProt Q96RR4 1-588) (enzyme)”, the binding result in assay [1] is “binds”.

For the substance “recombinant CaMKK2 (GST pull‐down) (from UniProt Q96RR4 1-588) (enzyme)”, the binding entry in assay [2] was “binds”.

The record behind these values is PMC11423089.
